Measurements as given in the supplement of paper PMC10849652.
The list shows a part of the results.

Sequences of proteins named here, by UniProt entry; tags and fusion partners are left off. A change or cut given only in a name is not applied to a line headed by its entry.
UniProt Q8WWB7: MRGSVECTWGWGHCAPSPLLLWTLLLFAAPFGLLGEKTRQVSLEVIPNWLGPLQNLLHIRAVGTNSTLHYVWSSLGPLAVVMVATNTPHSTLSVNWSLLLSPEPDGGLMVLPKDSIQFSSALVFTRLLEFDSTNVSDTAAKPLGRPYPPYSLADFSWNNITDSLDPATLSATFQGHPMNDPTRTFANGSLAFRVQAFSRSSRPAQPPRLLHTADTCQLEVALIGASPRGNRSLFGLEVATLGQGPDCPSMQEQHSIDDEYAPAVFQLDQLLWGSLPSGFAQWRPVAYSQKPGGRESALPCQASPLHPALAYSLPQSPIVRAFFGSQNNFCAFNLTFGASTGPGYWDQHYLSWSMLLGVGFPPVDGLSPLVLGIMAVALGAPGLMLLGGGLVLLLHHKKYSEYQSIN
UniProt Q9NZD2: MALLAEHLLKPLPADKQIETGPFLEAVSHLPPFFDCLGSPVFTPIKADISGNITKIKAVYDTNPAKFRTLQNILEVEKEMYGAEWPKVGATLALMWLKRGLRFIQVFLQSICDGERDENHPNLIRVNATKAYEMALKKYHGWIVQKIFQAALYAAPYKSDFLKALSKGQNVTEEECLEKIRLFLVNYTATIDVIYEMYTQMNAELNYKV
UniProt B7ZAQ6: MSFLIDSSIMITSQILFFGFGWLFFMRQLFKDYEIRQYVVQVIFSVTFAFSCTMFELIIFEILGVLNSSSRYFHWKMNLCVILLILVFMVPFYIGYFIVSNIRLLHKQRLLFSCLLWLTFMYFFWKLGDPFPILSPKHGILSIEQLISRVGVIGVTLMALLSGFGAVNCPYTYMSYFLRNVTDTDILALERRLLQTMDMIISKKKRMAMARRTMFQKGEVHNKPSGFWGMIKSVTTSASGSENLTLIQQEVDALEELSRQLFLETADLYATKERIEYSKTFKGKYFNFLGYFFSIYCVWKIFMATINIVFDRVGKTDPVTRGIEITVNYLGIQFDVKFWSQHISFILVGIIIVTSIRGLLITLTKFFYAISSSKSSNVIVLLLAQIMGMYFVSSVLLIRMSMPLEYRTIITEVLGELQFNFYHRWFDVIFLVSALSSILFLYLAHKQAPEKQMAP
UniProt Q99795: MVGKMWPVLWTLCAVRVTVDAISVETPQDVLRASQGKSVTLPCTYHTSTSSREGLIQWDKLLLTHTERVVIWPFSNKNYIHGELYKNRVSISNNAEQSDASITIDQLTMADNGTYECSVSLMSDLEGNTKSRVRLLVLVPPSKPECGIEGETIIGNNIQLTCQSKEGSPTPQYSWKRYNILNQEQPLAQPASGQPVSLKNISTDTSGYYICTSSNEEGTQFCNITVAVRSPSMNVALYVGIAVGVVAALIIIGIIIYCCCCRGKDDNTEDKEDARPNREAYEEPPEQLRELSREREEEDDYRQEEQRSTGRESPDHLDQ
UniProt Q15743: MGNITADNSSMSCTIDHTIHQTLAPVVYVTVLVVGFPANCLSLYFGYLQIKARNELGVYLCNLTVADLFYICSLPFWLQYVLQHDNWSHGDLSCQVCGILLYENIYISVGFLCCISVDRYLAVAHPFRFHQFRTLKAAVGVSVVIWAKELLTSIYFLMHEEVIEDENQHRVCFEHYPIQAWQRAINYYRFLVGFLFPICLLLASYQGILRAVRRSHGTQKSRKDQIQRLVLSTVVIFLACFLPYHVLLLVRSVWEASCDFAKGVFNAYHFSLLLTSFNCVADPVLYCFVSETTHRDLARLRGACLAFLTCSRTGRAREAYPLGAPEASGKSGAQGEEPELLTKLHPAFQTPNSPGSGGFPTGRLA
UniProt Q9BQQ3: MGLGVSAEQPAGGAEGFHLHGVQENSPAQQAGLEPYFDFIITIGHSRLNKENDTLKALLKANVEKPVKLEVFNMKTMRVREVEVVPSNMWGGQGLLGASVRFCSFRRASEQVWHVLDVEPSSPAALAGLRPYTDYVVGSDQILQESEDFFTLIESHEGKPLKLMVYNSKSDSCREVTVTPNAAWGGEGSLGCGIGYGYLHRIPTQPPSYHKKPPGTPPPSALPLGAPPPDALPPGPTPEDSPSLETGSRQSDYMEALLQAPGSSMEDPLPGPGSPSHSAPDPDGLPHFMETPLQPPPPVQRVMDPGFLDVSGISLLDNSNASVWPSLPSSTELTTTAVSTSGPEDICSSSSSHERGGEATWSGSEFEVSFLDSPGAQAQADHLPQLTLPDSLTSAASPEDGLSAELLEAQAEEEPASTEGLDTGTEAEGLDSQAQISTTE
UniProt P35754: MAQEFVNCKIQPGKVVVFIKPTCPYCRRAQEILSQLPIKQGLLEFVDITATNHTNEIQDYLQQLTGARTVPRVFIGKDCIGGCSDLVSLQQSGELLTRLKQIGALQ
UniProt P63092, whole entry, looked up: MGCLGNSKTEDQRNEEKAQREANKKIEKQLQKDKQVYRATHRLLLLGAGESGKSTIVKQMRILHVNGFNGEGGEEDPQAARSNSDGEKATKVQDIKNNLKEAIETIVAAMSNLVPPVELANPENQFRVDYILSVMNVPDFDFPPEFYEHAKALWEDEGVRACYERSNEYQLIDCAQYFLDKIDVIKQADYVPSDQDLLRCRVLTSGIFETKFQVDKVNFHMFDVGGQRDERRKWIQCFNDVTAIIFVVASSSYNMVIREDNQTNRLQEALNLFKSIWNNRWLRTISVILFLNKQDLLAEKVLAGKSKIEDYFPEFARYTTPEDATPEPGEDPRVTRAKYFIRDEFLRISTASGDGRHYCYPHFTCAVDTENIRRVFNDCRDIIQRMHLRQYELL
UniProt P36959: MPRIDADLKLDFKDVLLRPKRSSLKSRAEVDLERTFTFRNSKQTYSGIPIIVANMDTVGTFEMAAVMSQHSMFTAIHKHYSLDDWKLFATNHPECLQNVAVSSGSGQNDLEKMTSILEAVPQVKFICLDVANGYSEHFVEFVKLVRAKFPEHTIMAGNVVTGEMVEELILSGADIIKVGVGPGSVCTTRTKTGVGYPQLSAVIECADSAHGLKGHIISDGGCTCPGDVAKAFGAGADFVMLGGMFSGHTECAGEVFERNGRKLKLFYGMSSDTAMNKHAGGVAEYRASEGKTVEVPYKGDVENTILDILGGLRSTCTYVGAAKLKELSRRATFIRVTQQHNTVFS
UniProt Q9BVM4: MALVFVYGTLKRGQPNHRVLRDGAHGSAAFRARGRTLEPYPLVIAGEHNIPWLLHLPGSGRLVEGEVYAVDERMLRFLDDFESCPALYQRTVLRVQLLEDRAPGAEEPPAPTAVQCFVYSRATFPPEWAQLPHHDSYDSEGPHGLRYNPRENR
UniProt Q9UBI6: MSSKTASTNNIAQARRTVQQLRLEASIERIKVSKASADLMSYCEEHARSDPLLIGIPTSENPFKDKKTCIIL
UniProt Q14956: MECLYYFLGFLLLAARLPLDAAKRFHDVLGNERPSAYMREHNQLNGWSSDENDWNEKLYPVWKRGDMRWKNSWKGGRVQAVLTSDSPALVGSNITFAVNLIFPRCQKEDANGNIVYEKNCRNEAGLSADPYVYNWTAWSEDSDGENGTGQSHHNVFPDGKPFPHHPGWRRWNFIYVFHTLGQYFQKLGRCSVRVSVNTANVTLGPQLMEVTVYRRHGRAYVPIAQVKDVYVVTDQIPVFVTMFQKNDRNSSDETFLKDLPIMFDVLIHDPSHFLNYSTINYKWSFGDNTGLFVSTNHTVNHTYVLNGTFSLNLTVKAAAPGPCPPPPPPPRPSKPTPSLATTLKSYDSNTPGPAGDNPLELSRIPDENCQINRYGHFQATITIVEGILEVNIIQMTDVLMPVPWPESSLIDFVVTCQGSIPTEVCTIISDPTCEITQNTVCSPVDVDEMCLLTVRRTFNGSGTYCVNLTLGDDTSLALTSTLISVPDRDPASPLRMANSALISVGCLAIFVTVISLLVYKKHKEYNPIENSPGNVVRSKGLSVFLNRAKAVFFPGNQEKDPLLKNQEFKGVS
UniProt Q14691: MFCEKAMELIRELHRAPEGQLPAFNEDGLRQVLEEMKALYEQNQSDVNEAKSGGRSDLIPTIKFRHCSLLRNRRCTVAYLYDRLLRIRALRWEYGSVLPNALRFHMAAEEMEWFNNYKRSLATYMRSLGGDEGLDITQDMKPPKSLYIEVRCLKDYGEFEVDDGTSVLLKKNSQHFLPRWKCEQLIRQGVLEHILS
UniProt Q86YR5: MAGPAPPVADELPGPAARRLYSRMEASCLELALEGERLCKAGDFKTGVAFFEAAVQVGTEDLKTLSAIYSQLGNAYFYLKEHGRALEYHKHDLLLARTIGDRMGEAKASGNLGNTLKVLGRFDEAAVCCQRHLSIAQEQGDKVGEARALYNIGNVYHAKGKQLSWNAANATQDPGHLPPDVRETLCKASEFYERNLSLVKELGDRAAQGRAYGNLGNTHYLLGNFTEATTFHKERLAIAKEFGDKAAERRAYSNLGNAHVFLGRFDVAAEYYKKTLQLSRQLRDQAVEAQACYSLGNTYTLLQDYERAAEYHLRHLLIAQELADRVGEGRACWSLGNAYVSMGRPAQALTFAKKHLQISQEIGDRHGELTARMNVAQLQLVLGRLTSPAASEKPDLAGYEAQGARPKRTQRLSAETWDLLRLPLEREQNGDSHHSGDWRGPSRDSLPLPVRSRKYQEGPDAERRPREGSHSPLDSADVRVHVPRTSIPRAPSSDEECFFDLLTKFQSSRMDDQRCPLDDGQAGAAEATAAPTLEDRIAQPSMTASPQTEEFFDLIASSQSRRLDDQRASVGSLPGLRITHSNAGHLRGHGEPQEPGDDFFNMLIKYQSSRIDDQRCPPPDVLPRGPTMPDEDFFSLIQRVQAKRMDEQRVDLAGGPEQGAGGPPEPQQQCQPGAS
UniProt Q9H9Y4: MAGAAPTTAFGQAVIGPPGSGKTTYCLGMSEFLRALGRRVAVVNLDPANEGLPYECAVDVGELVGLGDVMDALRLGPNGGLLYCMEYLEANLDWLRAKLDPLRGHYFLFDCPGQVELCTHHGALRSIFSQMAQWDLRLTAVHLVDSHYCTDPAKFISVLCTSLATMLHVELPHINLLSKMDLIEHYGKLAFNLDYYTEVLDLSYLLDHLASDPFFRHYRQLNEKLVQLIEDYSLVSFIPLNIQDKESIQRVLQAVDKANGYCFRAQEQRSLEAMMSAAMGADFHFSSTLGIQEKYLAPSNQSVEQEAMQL
UniProt Q04760: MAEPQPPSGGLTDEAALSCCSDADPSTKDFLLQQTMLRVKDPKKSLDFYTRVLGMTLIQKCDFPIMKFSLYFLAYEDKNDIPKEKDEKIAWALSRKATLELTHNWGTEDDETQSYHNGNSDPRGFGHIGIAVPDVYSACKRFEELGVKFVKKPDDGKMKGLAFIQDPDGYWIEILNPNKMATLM
UniProt Q9NWQ4: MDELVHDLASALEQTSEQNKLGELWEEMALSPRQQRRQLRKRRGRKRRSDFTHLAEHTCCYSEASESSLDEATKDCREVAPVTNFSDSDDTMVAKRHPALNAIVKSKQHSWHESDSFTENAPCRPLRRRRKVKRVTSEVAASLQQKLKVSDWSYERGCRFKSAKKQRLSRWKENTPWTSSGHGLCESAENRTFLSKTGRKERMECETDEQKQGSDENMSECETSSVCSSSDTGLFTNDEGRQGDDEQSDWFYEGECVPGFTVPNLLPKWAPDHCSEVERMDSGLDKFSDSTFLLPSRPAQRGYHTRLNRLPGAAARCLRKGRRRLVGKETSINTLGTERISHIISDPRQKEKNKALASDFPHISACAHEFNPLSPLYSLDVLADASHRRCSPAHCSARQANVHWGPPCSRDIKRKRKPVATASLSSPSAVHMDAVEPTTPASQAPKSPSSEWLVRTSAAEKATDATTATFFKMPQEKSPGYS
UniProt Q5VSY0: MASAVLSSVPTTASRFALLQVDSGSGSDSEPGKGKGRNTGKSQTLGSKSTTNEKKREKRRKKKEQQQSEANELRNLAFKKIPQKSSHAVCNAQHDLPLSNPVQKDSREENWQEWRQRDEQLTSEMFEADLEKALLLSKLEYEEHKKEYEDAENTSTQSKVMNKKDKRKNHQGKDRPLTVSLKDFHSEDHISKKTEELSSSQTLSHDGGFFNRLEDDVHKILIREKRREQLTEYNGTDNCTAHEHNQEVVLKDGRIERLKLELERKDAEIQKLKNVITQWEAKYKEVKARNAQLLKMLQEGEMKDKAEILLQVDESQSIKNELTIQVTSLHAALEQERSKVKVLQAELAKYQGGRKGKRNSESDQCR
UniProt Q96I76: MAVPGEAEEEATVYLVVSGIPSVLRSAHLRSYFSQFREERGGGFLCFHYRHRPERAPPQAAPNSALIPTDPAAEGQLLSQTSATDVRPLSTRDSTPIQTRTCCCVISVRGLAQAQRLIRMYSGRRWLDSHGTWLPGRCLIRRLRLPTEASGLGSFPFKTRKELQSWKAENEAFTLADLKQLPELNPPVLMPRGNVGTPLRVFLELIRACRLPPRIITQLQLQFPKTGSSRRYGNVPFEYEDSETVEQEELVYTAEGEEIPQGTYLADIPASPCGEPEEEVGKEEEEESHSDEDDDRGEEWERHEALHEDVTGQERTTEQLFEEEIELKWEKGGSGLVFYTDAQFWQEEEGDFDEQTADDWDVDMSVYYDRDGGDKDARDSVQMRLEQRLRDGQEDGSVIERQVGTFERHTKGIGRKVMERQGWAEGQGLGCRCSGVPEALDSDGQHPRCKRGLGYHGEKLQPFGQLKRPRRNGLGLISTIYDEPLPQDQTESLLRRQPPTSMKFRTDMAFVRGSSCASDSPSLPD

What was measured:
Assay in all cases: log2 fold change, soluble protein after heating vs DMSO (PISA); higher = thermal stabilisation; K562 lysate, 10 uM; active = over 0.2 and 3.5 SD of the protein, either way, in both replicates (recomputed)
[1] = compound: C=CC(=O)N1CCC[C@@H](n2nc(-c3ccc(Oc4ccccc4)cc3)c3c(N)ncnc32)C1 [ibrutinib]
Outline: (§1)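 Quantification was by TMTpro 16plex LC-MS/MS with equalised channel sums, applied to the supernatant after 21,000xg for 90 min. Samples were crude K562 extract at 1 mg/mL protein in PBS pH 7.4 with 1 mM MgCl2, treated with 10 μM compound for 30 min, heated for 3 min across 48°C-58°C, pooled and brought to 0.5% NP-40 at 4°C. Values are log-two fold changes in thermal stability relative to solvent controls, from duplicates.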

[2] = compound: CC(=O)c1cnc2ccc(-c3cc(Cl)c(O)c(Cl)c3)nc2c1N[C@H]1CC[C@H](CN(C)C)CC1
Outline: as §1

[3] = compound: CC(C)(C)Cn1c(N)nc2ccc(-c3[nH]c(C(C)(C)C)nc3-c3ccc(F)cc3)nc21 [ralimetinib]
Outline: as §1

[4] = compound: CC(C)(O)CC(=O)NCCn1ccc2ncnc(Nc3ccc(Oc4cccc(C(F)(F)F)c4)c(Cl)c3)c21
Outline: as §1

[5] = compound: CC(C)C1=C2N=C(C=C(N2N=C1)NCC3=CC=CC=C3)NCCCCCCN
Outline: as §1

[6] = compound: CC1=C(C2=C(C=C1)C(=O)C3=CC=CC=C3N2CCCN)C
Outline: as §1

[7] = compound: CC1=C(C=C(C=C1)NC(=O)C2=CC(=CC=C2)C(C)(C)C#N)NC3=CC4=C(C=C3)N=CN(C4=O)C
Outline: as §1

[8] = compound: CC1=C(C=C(C=C1)NC(=O)C2=CC(=CC=C2)N(C)C)NC(=O)C3=CC=C(C=C3)O
Outline: as §1

[9] = compound: CC1=CC=C(C=C1)SC2=C3C=C(SC3=CN=C2)C(=O)N
Outline: as §1

[10] = compound: CC1=C(C(CC(=O)N1)C2=CC=C(C=C2)C(F)(F)F)C(=O)NC3=C(C=C4C(=C3)C=NN4)F
Outline: as §1

Measured: log2 fold change

GPBP1L1 (UniProt Q9HC44)
inactive: [1] 0.055 | [2] -0.12 | [3] 0.022 | [4] -0.007 | [5] -0.155 | [6] 0.016 | [7] 0.064 | [8] -0.011 | [9] -0.061

GINM1 (UniProt Q9NU53)
inactive: [5] 0.144 | [10] -0.091 | [7] 0.262

GLMP (UniProt Q8WWB7)
inactive: [3] -0.025 | [4] 0.019 | [5] -0.032 | [10] -0.014 | [6] 0.055 | [7] 0.082 | [8] -0.006

GLTP (UniProt Q9NZD2)
inactive: [1] 0.079 | [2] 0.006 | [3] -0.002 | [4] -0.079 | [5] 0.028 | [6] -0.069 | [7] 0.084 | [8] 0.033 | [9] -0.048

GNA12 (UniProt Q03113)
inactive: [1] -0.034 | [2] 0.03 | [3] -0.033 | [4] -0.023 | [6] -0.041 | [7] 0.03 | [8] 0.101 | [9] 0.002

GOLGA4 (UniProt Q13439)
inactive: [1] -0.145 | [3] 0.133 | [4] -0.046 | [5] 0.039 | [10] 0.184 | [6] -0.049 | [7] 0.079 | [8] -0.013

GPRASP2 (UniProt Q96D09)
inactive: [1] 0.1 | [3] -0.072 | [4] -0.123 | [10] 0.02 | [8] -0.17

GPR89A (UniProt B7ZAQ6)
inactive: [1] -0.044 | [2] 0.028 | [3] -0.051 | [4] -0.148 | [5] -0.103 | [10] 0.073 | [6] 0.006 | [7] 0.018 | [8] 0.059 | [9] -0.071

GPA33 (UniProt Q99795)
inactive: [1] 0.037 | [2] -0.029 | [3] 0.188 | [4] -0.123 | [5] -0.067 | [10] -0.091 | [6] 0 | [8] -0.024 | [9] 0.026

GNPTAB (UniProt Q3T906)
inactive: [1] 0.158 | [3] 0.026 | [4] -0.041 | [5] 0.094 | [10] 0.192 | [6] -0.233 | [7] 0.042 | [8] -0.165

GPSM2 (UniProt P81274)
inactive: [1] -0.019 | [2] -0.052 | [5] -0.03 | [10] 0.069 | [6] -0.151 | [7] 0.111 | [9] 0.027

GPR68 (UniProt Q15743)
inactive: [7] 0.113

GK5 (UniProt Q6ZS86)
inactive: [7] 0.105

GPAM (UniProt Q9HCL2)
inactive: [3] 0.034 | [4] 0.004 | [8] -0.066

GORASP1 (UniProt Q9BQQ3)
inactive: [2] 0.137 | [3] -0.01 | [4] -0.011 | [5] 0.019 | [10] 0.038 | [6] 0.027 | [7] -0.061 | [8] -0.034 | [9] -0.02

GPS1 (UniProt A8K070)
inactive: [1] 0.008 | [2] 0.017 | [3] 0.037 | [4] -0.005 | [5] -0.035 | [10] -0.033 | [6] -0.01 | [7] -0.002 | [8] -0.065 | [9] -0.015

GLRX (UniProt P35754)
inactive: [7] 0.096

GNAS isoform 3 (UniProt P63092)
inactive: [2] 0.033 | [5] -0.143 | [7] 0.006 | [9] 0.01

GMPR (UniProt P36959)
inactive: [1] 0.047 | [2] 0.001 | [3] 0.004 | [4] -0.062 | [5] 0.008 | [10] 0.016 | [6] -0.007 | [7] -0.024 | [8] -0.008 | [9] -0.018

GOSR1 (UniProt E9PCW1)
inactive: [1] 0.102 | [3] 0.085 | [4] 0.033 | [10] 0.145 | [6] -0.036 | [7] -0.024 | [8] -0.094

GMPPB isoform 2 (UniProt Q9Y5P6)
inactive: [1] -0.018 | [2] 0.002 | [3] 0.022 | [4] -0.031 | [5] 0.005 | [10] 0.009 | [6] -0.018 | [7] 0.018 | [8] 0.011 | [9] 0.003

GGACT (UniProt Q9BVM4)
inactive: [1] 0.026 | [2] 0.03 | [3] 0.033 | [4] 0.002 | [5] -0.009 | [6] -0.053 | [7] 0.117 | [8] 0.004 | [9] -0.015

Two records drawn at random from the list so far, as already listed:
GGACT (UniProt Q9BVM4)
inactive: [1] 0.026 | [2] 0.03 | [3] 0.033 | [4] 0.002 | [5] -0.009 | [6] -0.053 | [7] 0.117 | [8] 0.004 | [9] -0.015

GNAS isoform 3 (UniProt P63092)
inactive: [2] 0.033 | [5] -0.143 | [7] 0.006 | [9] 0.01

(further entries)

GNG12 (UniProt Q9UBI6)
inactive: [10] -0.221

GPNMB (UniProt Q14956)
inactive: [1] -0.07 | [2] -0.375 | [10] -0.072 | [6] -0.229 | [7] 0.739 | [9] -0.17

GINS1 (UniProt Q14691)
inactive: [1] -0.027 | [2] -0.002 | [3] 0.01 | [4] 0.034 | [5] -0.024 | [10] 0.027 | [6] 0.002 | [7] 0.024 | [8] -0.009 | [9] 0.018

GPD1L (UniProt Q8N335)
inactive: [1] -0.013 | [2] 0.048 | [3] 0.049 | [4] -0.007 | [5] -0.015 | [10] -0.007 | [6] 0.015 | [7] -0.003 | [8] 0.017 | [9] -0.028

GLRX5 (UniProt Q86SX6)
inactive: [1] 0.019 | [2] -0.006 | [3] -0.003 | [4] 0.008 | [5] 0.008 | [10] -0.103 | [6] 0 | [7] 0.064 | [8] -0.068 | [9] -0.016

GPSM1 (UniProt Q86YR5)
inactive: [5] 0.058 | [7] 0.074

GPN2 (UniProt Q9H9Y4)
inactive: [2] -0.022 | [3] 0.12 | [4] 0.028 | [5] -0.042 | [10] 0.036 | [6] 0.025 | [7] 0.067 | [8] 0.057 | [9] 0.019

GOLGB1 isoform 4 (UniProt Q14789)
inactive: [3] -0.054 | [4] -0.049 | [6] -0.064 | [8] 0.049

GPLD1 (UniProt P80108)
inactive: [6] -0.058 | [7] -0.187

GOLIM4 (UniProt F8W785)
inactive: [7] -0.079

GLO1 (UniProt Q04760)
inactive: [1] -0.033 | [2] 0.011 | [3] -0.03 | [4] -0.027 | [5] -0.002 | [10] -0.03 | [6] -0.033 | [7] 0.022 | [8] -0.012 | [9] -0.003

GPATCH2L (UniProt Q9NWQ4)
inactive: [3] 0.112 | [4] 0.156 | [6] -0.159 | [7] 0.124 | [8] 0.005

GOT1 (UniProt P17174)
inactive: [1] 0.004 | [2] 0.01 | [3] -0.009 | [4] -0.005 | [5] -0.006 | [10] -0.032 | [6] -0.002 | [7] 0.019 | [8] -0.021 | [9] -0.016

GKAP1 (UniProt Q5VSY0)
inactive: [7] 0.08

GMEB1 isoform 2 (UniProt Q9Y692)
inactive: [3] 0.058 | [4] -0.077 | [10] 0.073 | [7] 0.043 | [8] -0.071

GPATCH3 (UniProt Q96I76)
inactive: [3] -0.107 | [4] -0.126 | [5] -0.012 | [7] 0.005 | [8] 0.005
